Source: PubChem BioAssay AID977622 (Broad Institute, 2014)
This is one part of the list. The main result of the screen is listed elsewhere. These columns were measured beside it and carry no call.

Legend:
[1] = wild-type E. coli growth inhibition versus h38 humanized strain – h38 mutant RFP, wild-type GFP, cherry-pick, dose response (AID 977622); conditions: E. coli mixed culture, 24 h, total growth OD600 at 50 uM
[2] = system: E. coli h38 humanized mutant ribosome RFP fluorescence, mixed culture, 24 h; assay: as above; conditions: h38 mutant RFP at 50 uM

| Structure (SMILES) | activity change [1] | activity change [2] |
| --- | --- | --- |
| CCOc1ccc2oc(C(=O)NC3CCN(Cc4ccccc4)CC3)c(C)c2c1 | -20.6% | 12.3% |
| CCOc1ccc(OCCn2c(=S)[nH]c3c(N)ncnc32)cc1 | -49.8% | 56.2% |
| COc1ccc(OC2C(=O)N(Cc3ccc4c(c3)OCO4)C2c2cccs2)cc1 (stereo unspecified) | -36.6% | 33.2% |
| COc1ccc(-c2nnc(COc3ccc(Br)cc3C)o2)cc1 | -49.8% | -11.2% |
| C=CCn1c(SCC(=O)Nc2ccc3c(c2)OCCO3)nnc1-c1ccco1 | -15.1% | 12.9% |
| COc1ccccc1CN1Cc2ccccc2Oc2ccccc2S1(=O)=O |  | -13.1% |
| CCC(C(=O)NC1CCCC1)n1c(-c2ccnc3ccccc23)nc2ccccc21 (stereo unspecified) | -37.9% | -22.9% |
| CN(CCOc1ccccc1)C(=O)c1ccc(OC2CCN(C(=O)C3CC3)CC2)cc1 | -36.7% | -2.08% |
| CN(C)CCCN(C(=O)CCSc1ccccc1)c1nc2cc3c(cc2s1)OCO3 | -28% | 6.54% |
| CC(C)Sc1sc(C(=O)O)c(-c2ccc(Cl)cc2)c1C#N | -88.4% | -13% |
| COc1ccc(CNS(=O)(=O)c2ccc3c(c2)NC(=O)C(C)S3)cc1 (stereo unspecified) | -34.3% | -26.2% |
| O=C(Nc1cc(F)ccc1F)N1C[C@@H]2[C@H](c3ccccc31)[C@H](CO)N2Cc1ccncc1 | -92.6% | -10.5% |
| CCOc1ccc(S(=O)(=O)N(C)c2ccc(OCC(=O)Nc3ccc4[nH]c(=O)[nH]c4c3)cc2)cc1 | -49.8% | 1.75% |
| Cc1cccc(NC(=O)COc2cccc3c2CCNC3=O)c1 | 15.2% | 12% |
| O=C(NCCCN1CCOCC1)c1sc2cc([N+](=O)[O-])ccc2c1Cl | 1.03% |  |
| O=C(CCCn1c(=S)[nH]c2ccsc2c1=O)Nc1ccc2c(c1)OCCO2 | -58.3% | -5.85% |
| COC(=O)c1sccc1NC(=O)Cn1nnc(-c2ccccc2C)n1 | -38.9% | -12.2% |
| COc1ccc(S(=O)(=O)n2cccc2)cc1 | -6.73% | 0.916% |
| O=C(Nc1ccc(Cl)cc1)N1C[C@H]2[C@@H](c3ccccc31)[C@H](CO)N2C(=O)c1ccccn1 | -56.4% |  |
| CCCCc1ccc(S(=O)(=O)Nc2ccc(C)c(NS(C)(=O)=O)c2)cc1 | -47.2% | -14.8% |
| Cc1onc(-c2c(Cl)cccc2Cl)c1C(=O)Nc1ccc(Cl)cn1 | -7.94% | 15.2% |
| C[C@@H]1CN([C@H](C)CO)C(=O)c2c(c3ccccc3n2C)-c2ccccc2CO[C@@H]1CN(C)C(=O)CCN(C)C | -2.97% | 2.51% |
| C[C@@H]1CN([C@@H](C)CO)C(=O)c2cccc(NC(=O)c3nc4ccccc4s3)c2O[C@@H]1CN(C)CC1CC1 | -8.17% | 2.18% |
| Nc1nc(Nc2ccccc2F)nc(N2CCOCC2)c1[N+](=O)[O-] | -3.7% | 6.83% |
| CCn1c(CCCOc2ccc(Cl)cc2Cl)n[nH]c1=S | -82.1% | -28.8% |
| CCc1nnc(NS(=O)(=O)c2ccc(NC(=O)c3cc(Cl)ccc3[N+](=O)[O-])cc2)s1 | -40.3% |  |
| O=C(Nc1ccc(Cl)c(Cl)c1)N[C@@H]1CC[C@@H](CCn2cc(C3CCCCC3)nn2)O[C@H]1CO | -19% | -11.8% |

| Structure (SMILES) | activity change [1] | activity change [2] |
| --- | --- | --- |
| COc1cccc(S(=O)(=O)N2CCCCN3[C@H](CO)[C@H](c4ccc(C5=CCCCC5)cc4)[C@H]3C2)c1 | -53.4% | -35.4% |
| CC(C)Oc1cccc(C(=O)C2CCCN(C(=O)c3cc(C(F)(F)F)[nH]n3)C2)c1 (stereo unspecified) | -52.8% | -5.69% |
| O=C(NCc1ccc2c(c1)OCO2)C1CCCN1S(=O)(=O)c1ccc(Cl)cc1 (stereo unspecified) | -25.6% | 31.4% |
| Cc1noc(NS(=O)(=O)c2ccc(NC(=O)c3cc(-c4ccccc4Cl)nc4ccccc34)cc2)c1C | -35.9% | -30.4% |
| Cc1nc(N2CCCCC2)c(C#N)c(C)c1[N+](=O)[O-] | -70.8% |  |
| Cc1cccc(C)c1Nc1ncnc2ccccc12 | -39.6% | -28.1% |
| COc1cc[n+]([O-])cc1[N+](=O)[O-] | -3.57% |  |
| O=C(Cc1ccc(NC(=O)C2CCCN(C(=O)CCc3ccccc3)C2)cc1)Nc1cccc(C(=O)N2CCCC2)c1 (stereo unspecified) | -23.2% | -9.07% |
| COc1ccc(C(=O)COc2ccc(F)cc2)c(O)c1 | -0.444% | -11.1% |
| COc1ccccc1CC(=O)NCc1csc(-c2cccs2)n1 |  | 1.76% |
| COc1ccc(-c2csc(NC(=O)c3ccoc3C)n2)cc1 | -20.7% | -19.1% |
| Cc1noc(C)c1NC(=O)Nc1ccc2c(c1)C(=O)N([C@@H](C)CO)C[C@H](C)[C@H](CN(C)C(=O)Nc1ccc3c(c1)OCO3)OCCCC[C@H](C)O2 | -4.81% | 20.2% |
| O=C(NOCc1ccccc1)c1coc(-c2ccccc2)n1 | -14.1% | 3.23% |
| CS(=O)(=O)N(CC(=O)N1CCc2ccccc2C1)c1ccc(Br)cc1 | -45.2% | -10.1% |
| COc1cccc(NC(=O)C2CCC(CNS(=O)(=O)c3cccs3)CC2)c1 (stereo unspecified) | -49.9% | -21.9% |
| CC(C)(C)c1ccc(N2C(=O)CSC2c2cccnc2)cc1 (stereo unspecified) | -27.7% | 39.4% |
| CC1CCCCN1C(=O)C1CCCN(S(=O)(=O)c2cccc3nsnc23)C1 (stereo unspecified) | -38.1% | -29.6% |
| O=C(C[C@@H]1CC[C@@H]2[C@H](COC[C@H](O)CN2C(=O)Nc2ccc(Cl)cc2)O1)N1CCCCC1 | -62.7% | 74.9% |
| O=C(Nc1ccc(Cl)c(Cl)c1)N[C@H]1CC[C@@H](CCn2cc(C3CCCCC3)nn2)O[C@@H]1CO | -76.2% | 14.9% |
| O=C(Nc1ccccc1Cl)N1C[C@H]2[C@@H](c3ccccc31)[C@H](CO)N2Cc1ccccc1 | -73.4% | 56.4% |
| C[C@@H]1CN([C@@H](C)CO)C(=O)c2cccc(NC(=O)Nc3ccccc3)c2O[C@@H]1CN(C)S(=O)(=O)c1ccc(Cl)cc1 | -82.4% | 7.93% |
| O=C(NCc1cccnc1)c1ccc(COc2ccc3c(c2)CCC3)o1 | -47.2% | -7.28% |
| CCOC(=O)C1CCCN(Cc2c(Cl)cccc2Cl)C1 (stereo unspecified) | -3.35% | -1.64% |
| COc1ccccc1-c1cc2nc(NCCc3ccncc3)ccn2n1 | -38.2% | -5.89% |
| Cc1ccc2ccccc2c1CSc1nc(N)nc2c1ncn2CC(C)C | -44.1% | -28.3% |
| C=CCn1c(SCC(=O)N2CCCC2=O)nc2sc(CC)cc2c1=O | 6.21% | 69.5% |
| O=C(Nc1ccc(Cl)cc1)N1C[C@@H]2[C@H](c3ccccc31)[C@@H](CO)N2C(=O)c1ccccn1 | -53.7% | 59.2% |

A stretch from further up, as a working copy:

| Structure (SMILES) | activity change [1] | activity change [2] |
| --- | --- | --- |
| CC1CCCCN1C(=O)C1CCCN(S(=O)(=O)c2cccc3nsnc23)C1 (stereo unspecified) | -38.1% | -29.6% |
| O=C(C[C@@H]1CC[C@@H]2[C@H](COC[C@H](O)CN2C(=O)Nc2ccc(Cl)cc2)O1)N1CCCCC1 | -62.7% | 74.9% |
| O=C(Nc1ccc(Cl)c(Cl)c1)N[C@H]1CC[C@@H](CCn2cc(C3CCCCC3)nn2)O[C@@H]1CO | -76.2% | 14.9% |
| O=C(Nc1ccccc1Cl)N1C[C@H]2[C@@H](c3ccccc31)[C@H](CO)N2Cc1ccccc1 | -73.4% | 56.4% |
